Test results from PubChem BioAssay AID493014 (National Center for Advancing Translational Sciences (NCATS), 2011).
This is one part of the list. The main result of the screen is listed elsewhere. These columns were measured beside it and carry no call. The list favours compounds with an active or inconclusive main result. Potencies come from curve fits of mixed quality, noted in brackets.

Assay: qHTS Assay to Find Inhibitors of Chronic Active B-Cell Receptor Signaling
Conditions: ABC-DLBCL IkBa-CBG/CBR reporter, luminescence ratio (green luciferase fused to IkBa over red control in TMD8 lymphoma cells), 4 h
Outline: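 TMD8 human ABC-DLBCL cells with doxycycline-inducible IκBα–green luciferase fusion and unfused red luciferase, in 0.5% FBS medium; compounds up to 46 uM, 4 h at 37C. Green/red luminescence ratio, filter-overlap corrected, fitted to concentration-response curves.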

[1] = measured here: CBR red luminescence, cell number

Row | Compound | AC50 [1] | AC50 (measured here: IkBa-CBG green luminescence)
1 | CCOC(=O)C1CCN(C(=O)COc2ccc3c(c2)OCO3)CC1 | 8.91 µM [falling, partial curve] | 
2 | O=[N+]([O-])c1cccc(CN2CCN(c3cccc4[nH]ccc34)CC2)c1 | 5.01 µM [rising, single point] | 
3 | CCCCNC(=O)Nc1nnc(-c2ccccc2)o1 | 7.31 µM [falling, partial curve] | 
4 | Cc1csc(NC(=O)CCC(=O)N(CC(=O)NC2CCCC2)Cc2ccccc2)n1 | 10 µM [falling, partial curve] | 
5 | Cc1cc2nc(-c3ccccn3)c(-c3ccccn3)nc2cc1C | 1 µM [rising, full curve, poor fit] | 
6 | COc1cc(OC)cc(C(=O)NCc2cc(C)nc3ccccc23)c1 |  | 20 µM [falling, partial curve, poor fit]
7 | Cc1ccccc1NC(=O)CSc1nnc(-c2ccoc2C)n1CCc1ccccc1 | 11.2 µM [falling, partial curve, poor fit] | 
8 | CCCCN(C)CCCNC(=O)C1(O)c2ccccc2NC(=O)N1c1ccc(Cl)cc1 (stereo not drawn) | 3.16 µM [falling, partial curve, poor fit] | 
9 | O=C1C=C(c2ccc(Cl)c(C(F)(F)F)c2)C[C@@H](c2ccc(Cl)cc2)C1 | 0.0058 µM [rising, full curve, poor fit] | 
10 | CCOc1ccc(/C=C/C(=O)NC2CCCCC2)cc1 | 11.2 µM [rising, single point] | 
11 | COCCCNC(=S)N1CCC(NC(=O)Nc2ccc(C)cc2)CC1 | 3.98 µM [rising, full curve, poor fit] | 
12 | COc1ccc2oc(C(=O)N3CCN(S(=O)(=O)c4cccc([N+](=O)[O-])c4)CC3)c(C)c2c1 | 14.1 µM [rising, partial curve, poor fit] | 
13 | CC(=O)Oc1ccc2oc(C)c(C(=O)N3CCOCC3)c2c1 | 15.8 µM [rising, single point] | 
14 | COc1ccc(S(=O)(=O)N2CCCCCC2)cc1NC(=O)CN1C(=O)NC(C)(c2ccc(C)cc2)C1=O (stereo not drawn) | 8.2 µM [rising, partial curve, poor fit] | 
15 | O=C(Nc1ncc(Cc2cccc(Cl)c2)s1)C1CCCO1 (stereo not drawn) | 4.47 µM [rising, full curve] | 
16 | CC(=O)Nc1nc(NC(=O)C(Cl)(Cl)Cl)n(-c2ccccc2)n1 | 0.631 µM [rising, full curve, poor fit] | 
17 | C=CCNc1oc(/C=C/c2ccccc2)nc1C#N | 2.24 µM [rising, partial curve, poor fit] | 
18 | O=C(O)CC1(CC(=O)NCc2ccc(Cl)cc2)CCCCC1 | 15.8 µM [rising, single point] | 

3 structures already listed, ordered by formula weight, low to high.
Row | Compound | AC50 [1] | AC50 (measured here: IkBa-CBG green luminescence)
17 | C=CCNc1oc(/C=C/c2ccccc2)nc1C#N | 2.24 µM [rising, partial curve, poor fit] | 
8 | CCCCN(C)CCCNC(=O)C1(O)c2ccccc2NC(=O)N1c1ccc(Cl)cc1 (stereo not drawn) | 3.16 µM [falling, partial curve, poor fit] | 
12 | COc1ccc2oc(C(=O)N3CCN(S(=O)(=O)c4cccc([N+](=O)[O-])c4)CC3)c(C)c2c1 | 14.1 µM [rising, partial curve, poor fit] | 
